No constants are given. Whether binding was seen depends on the method and setting. In cells and extracts the contact can be indirect. For part of these data: Binding can be weak; no strength is given.
Experiments:
Assay in all cases: co-IP; lysate of HEK293T cells transfected with a Myc-tagged TLR ECD incubated with 80 ng purified V5-tagged AaNRP at 4 °C, precipitated with anti-Myc tag antibody (magnetic beads), five washes with IP lysis buffer, blots for V5 and Myc; only the binder purified
[1] = target: T1, human TLR10 extracellular domain (human) (UniProt Q9BXR5)
T1 sequence: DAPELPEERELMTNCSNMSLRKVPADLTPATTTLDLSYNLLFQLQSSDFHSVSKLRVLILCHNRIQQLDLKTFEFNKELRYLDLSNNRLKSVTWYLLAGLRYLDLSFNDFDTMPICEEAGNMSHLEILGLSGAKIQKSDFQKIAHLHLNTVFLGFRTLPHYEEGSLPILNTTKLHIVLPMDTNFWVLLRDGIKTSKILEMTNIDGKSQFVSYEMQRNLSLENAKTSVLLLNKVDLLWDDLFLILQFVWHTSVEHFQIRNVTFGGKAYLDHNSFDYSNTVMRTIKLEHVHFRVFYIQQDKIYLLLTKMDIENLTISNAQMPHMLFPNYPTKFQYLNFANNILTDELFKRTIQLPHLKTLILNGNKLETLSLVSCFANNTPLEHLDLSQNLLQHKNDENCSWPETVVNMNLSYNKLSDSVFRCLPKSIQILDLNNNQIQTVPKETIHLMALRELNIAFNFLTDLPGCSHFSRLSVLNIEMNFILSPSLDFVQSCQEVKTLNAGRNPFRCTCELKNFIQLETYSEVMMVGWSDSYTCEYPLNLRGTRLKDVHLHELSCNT

By UniProt entry, the sequences of proteins in these tests, tags left out. Where a name states a change or a piece, a line headed by the entry shows the natural chain unless it says otherwise. Residues count along the entry.
UniProt Q6R5P0, residues 31-721: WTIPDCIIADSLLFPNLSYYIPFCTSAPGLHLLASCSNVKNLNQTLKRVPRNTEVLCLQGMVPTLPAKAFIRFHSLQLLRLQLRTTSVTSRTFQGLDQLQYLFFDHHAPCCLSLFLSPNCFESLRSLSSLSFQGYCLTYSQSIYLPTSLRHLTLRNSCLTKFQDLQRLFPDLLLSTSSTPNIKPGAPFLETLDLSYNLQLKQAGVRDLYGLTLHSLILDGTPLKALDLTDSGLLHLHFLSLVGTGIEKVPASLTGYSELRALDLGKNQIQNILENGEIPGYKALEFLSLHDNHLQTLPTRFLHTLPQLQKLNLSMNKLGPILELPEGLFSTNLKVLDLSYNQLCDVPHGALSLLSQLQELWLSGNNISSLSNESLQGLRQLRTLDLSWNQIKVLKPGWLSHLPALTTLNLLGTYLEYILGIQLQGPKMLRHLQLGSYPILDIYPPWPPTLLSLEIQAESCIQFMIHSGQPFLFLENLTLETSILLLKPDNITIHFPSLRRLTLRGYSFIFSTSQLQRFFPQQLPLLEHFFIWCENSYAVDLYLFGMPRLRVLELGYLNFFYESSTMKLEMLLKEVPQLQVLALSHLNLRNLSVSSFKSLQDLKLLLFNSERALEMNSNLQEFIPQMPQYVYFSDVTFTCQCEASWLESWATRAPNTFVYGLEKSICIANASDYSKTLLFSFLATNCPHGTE
UniProt Q9QUK6, residues 26-638: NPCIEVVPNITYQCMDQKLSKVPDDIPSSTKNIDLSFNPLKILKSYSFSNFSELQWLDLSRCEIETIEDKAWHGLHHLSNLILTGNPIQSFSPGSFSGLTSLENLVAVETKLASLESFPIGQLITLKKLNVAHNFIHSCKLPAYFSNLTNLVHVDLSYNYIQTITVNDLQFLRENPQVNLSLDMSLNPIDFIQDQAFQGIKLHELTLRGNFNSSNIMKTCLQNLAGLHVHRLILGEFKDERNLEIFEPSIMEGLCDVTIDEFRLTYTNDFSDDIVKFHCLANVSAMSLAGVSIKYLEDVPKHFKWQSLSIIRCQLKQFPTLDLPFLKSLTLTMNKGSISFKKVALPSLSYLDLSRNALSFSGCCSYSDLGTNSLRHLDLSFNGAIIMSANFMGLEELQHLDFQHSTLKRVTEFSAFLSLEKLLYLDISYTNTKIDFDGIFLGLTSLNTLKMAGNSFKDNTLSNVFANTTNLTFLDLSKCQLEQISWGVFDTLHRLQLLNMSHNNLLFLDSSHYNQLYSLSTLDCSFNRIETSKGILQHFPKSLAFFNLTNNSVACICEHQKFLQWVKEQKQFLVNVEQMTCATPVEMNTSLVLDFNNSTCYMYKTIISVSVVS
UniProt Q172F2: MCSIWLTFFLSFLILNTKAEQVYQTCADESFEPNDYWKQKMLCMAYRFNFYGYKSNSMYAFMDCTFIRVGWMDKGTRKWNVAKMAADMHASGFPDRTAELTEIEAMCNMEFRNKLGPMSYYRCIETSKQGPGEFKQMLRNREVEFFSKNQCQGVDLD

[2] = target: T2, human plasma membrane TLR1 extracellular domain (human) (UniProt Q15399)
T2 sequence: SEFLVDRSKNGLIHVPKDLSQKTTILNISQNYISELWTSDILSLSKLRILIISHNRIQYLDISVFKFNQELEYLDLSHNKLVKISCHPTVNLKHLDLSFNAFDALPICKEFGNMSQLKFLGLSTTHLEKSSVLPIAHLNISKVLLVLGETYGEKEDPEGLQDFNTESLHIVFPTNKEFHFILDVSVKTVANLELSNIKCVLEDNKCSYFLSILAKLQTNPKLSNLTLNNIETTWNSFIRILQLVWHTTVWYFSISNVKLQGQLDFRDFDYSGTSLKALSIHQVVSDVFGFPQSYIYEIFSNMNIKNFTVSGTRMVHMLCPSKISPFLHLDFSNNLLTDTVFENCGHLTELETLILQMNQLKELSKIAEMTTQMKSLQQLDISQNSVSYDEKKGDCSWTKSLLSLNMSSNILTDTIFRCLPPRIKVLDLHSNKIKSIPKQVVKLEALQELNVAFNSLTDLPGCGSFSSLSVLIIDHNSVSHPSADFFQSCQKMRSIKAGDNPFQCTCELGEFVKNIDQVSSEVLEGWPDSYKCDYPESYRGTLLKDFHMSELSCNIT

[3] = target: murine Toll-like receptor 11 extracellular domain (mouse) (UniProt Q6R5P0)
[4] = target: T3, murine Toll-like receptor 2 extracellular domain (mouse) (UniProt Q9QUN7)
T3 sequence: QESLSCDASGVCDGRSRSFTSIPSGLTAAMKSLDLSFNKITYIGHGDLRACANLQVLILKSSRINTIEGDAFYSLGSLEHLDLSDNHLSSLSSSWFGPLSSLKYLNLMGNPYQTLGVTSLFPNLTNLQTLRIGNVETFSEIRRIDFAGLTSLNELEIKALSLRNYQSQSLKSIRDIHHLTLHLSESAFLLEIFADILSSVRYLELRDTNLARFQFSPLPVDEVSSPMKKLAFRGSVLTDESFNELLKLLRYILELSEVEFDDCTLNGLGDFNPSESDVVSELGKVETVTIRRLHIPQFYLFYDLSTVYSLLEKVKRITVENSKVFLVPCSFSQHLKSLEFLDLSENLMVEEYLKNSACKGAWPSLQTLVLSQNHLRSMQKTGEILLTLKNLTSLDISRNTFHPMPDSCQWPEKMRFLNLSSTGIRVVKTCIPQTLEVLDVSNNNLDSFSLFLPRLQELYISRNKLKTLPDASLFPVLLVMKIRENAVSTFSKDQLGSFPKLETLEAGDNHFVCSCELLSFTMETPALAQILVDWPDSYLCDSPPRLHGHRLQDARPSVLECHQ

[5] = target: murine Toll-like receptor 4 extracellular domain (mouse) (UniProt Q9QUK6)
[6] = target: T4, murine Toll-like receptor 6 extracellular domain (mouse) (UniProt Q9EPW9)
T4 sequence: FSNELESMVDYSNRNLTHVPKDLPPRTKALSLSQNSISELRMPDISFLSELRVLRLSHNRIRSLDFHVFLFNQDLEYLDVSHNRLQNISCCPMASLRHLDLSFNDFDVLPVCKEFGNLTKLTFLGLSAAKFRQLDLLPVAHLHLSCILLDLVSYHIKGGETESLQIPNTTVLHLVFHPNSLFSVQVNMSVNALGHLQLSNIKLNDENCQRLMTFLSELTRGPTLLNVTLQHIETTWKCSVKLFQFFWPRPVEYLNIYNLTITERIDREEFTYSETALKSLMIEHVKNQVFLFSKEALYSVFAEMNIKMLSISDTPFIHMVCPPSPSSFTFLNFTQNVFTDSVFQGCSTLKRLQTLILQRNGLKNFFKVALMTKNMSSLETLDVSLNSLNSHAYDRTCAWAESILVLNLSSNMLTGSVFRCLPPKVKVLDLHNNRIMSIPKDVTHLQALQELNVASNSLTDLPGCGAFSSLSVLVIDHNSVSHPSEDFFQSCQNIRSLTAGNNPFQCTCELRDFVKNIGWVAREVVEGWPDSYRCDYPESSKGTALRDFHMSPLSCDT

## A. aegypti Neutrophil Recruitment Protein (AaNRP) (from UniProt Q172F2)
[1]
  binding: no binding (tested: 80 ng of purified AaNRP)
[2]
  binding: binds
[3]
  binding: no binding (tested: 80 ng of purified AaNRP)
[4]
  binding: no binding (tested: 80 ng of purified AaNRP)
[5]
  binding: binds
[6]
  binding: no binding (tested: 80 ng of purified AaNRP)
